Data reported in publication PMC8305094.
Results are given in words; binding and its absence hold for the method and conditions named. Binding seen in cells or lysates may run through a third protein. Some binding calls cover weakened binding; strength is not graded here.

By UniProt entry, the sequences of proteins in these tests, tags left out. Where a name states a change or a piece, a line headed by the entry shows the natural chain unless it says otherwise. Chains listed by the source or under a name are the forms on record and can include a tag or linker. Residues count along the entry.
UniProt Q15796: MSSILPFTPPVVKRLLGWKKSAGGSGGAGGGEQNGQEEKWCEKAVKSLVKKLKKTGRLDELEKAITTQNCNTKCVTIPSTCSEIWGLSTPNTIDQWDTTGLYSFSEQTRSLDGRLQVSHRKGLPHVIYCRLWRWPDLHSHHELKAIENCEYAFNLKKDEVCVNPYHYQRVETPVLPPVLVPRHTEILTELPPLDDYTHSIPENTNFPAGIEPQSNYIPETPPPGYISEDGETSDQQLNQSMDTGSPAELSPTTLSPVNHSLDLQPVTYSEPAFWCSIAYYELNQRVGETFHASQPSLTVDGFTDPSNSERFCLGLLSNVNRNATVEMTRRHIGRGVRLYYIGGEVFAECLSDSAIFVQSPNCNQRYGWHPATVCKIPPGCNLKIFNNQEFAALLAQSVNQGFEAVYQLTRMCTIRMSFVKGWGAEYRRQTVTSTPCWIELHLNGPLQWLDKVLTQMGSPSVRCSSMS
FLAG-tagged MH1, Smad2 (1-185): residues 1-185 of Q15796
UniProt O35613: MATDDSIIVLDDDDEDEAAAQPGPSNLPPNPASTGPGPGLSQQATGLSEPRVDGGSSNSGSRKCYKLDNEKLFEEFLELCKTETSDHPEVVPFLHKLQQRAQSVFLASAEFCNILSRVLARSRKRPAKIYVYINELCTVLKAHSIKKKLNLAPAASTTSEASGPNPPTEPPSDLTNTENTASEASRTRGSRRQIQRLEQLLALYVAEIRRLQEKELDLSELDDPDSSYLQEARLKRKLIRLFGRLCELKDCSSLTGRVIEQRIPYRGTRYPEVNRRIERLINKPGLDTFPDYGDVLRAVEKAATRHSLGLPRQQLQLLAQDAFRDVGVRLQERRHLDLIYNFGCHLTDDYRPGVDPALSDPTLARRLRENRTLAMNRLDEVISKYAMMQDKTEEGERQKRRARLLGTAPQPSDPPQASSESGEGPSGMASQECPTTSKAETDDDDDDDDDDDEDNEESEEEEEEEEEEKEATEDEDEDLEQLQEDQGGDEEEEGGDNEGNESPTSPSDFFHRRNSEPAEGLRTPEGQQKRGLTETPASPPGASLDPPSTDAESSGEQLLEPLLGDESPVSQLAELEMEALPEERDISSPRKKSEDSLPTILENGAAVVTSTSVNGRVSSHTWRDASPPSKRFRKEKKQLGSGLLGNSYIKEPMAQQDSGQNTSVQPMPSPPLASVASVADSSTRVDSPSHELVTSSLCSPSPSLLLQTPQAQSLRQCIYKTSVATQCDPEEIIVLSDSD
UniProt Q9UER7: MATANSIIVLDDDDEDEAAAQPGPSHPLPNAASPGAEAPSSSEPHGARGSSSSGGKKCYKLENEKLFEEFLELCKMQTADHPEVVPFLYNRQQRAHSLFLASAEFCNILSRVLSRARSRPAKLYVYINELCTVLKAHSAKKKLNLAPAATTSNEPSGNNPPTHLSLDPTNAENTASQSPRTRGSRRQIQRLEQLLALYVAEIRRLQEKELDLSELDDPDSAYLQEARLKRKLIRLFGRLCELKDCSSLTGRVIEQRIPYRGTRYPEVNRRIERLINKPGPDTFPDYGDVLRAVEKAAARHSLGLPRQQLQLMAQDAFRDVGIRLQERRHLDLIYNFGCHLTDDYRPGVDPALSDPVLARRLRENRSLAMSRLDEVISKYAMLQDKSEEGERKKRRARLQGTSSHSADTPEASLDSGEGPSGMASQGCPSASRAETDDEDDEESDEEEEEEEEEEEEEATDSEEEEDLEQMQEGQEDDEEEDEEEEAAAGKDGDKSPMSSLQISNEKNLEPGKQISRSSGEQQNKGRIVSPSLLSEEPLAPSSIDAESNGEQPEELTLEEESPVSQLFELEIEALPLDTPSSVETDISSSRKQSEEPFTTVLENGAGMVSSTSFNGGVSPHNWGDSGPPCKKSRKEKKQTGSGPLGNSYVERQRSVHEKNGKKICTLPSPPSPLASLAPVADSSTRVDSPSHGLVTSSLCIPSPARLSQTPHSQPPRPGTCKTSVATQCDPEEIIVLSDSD

Legend:
[1] = target: Flag-Smad2, in FL83B cells (UniProt Q15796); assay: co-IP; FL83B cells transfected with Flag-Smad2, with or without TGF-β; lysates precipitated with anti-Flag beads; blot with Daxx, p-Smad2 and Smad2 antibodies
[2] = target: FLAG-tagged MH1, Smad2 (1-185) (UniProt Q15796); assay: co-IP; HA-Daxx cotransfected with Flag-Smad2 or Flag-MH1 in HEK 293T cells; lysis buffer 50 mM Tris-Cl pH 7.5, 120 mM NaCl, 0.5% NP-40; precipitated with anti-FLAG beads or anti-HA antibody and protein A agarose; Western blot
[3] = target: FLAG-tagged Smad2 (full-length, WT), in HEK 293T (UniProt Q15796); assay: as above

Row | Substance | binding [1] | binding [2] | binding [3]
1 | endogenous Daxx of FL83B cells (from UniProt O35613 1-739) | binds | – | –
2 | HA-tagged Death-associated protein 6 (Daxx) (from UniProt Q9UER7 1-740) | – | binds | binds
